{
  "source": "patent US12138336B2",
  "about": "“Personal care composition comprising water insoluble solid organic compound” (The Procter & Gamble Company, priority 2018, dated 2024)",
  "assay": "Di-electric constant, BI-870 Liquid Dielectric Constant Meter",
  "assay_type": "physicochemical",
  "settings": "third liquid compounds; room temperature (23.1-23.4° C.)",
  "procedure": "Dielectric constant is measured at room temperature (23.1 ˜23.4° C.) using BI-870 Liquid Dielectric Constant Meter (Brookhaven Instruments, Corp., New York).",
  "note": "At least one structure is not confirmed: it was looked up by name or label, or the drawing left a doubt.",
  "data": [
    {"smiles": "OCCOc1ccccc1", "note": "[Phenoxyethanol]", "values": [
      {"measurement": "Di-electric constant", "result": 11.04}
    ]}
  ]
}
